Assay results from PMC12402101.
Results are given in words; binding and its absence hold for the method and conditions named. Some entries that bind do so weakly or less than the wild type.

Molecular target: …ON …3 (VIN3) fused to SYFP2 (Arabidopsis thaliana) (UniProt Q9FIE3)
Test: single-molecule tracking with stepwise photobleaching (SlimVar microscopy); single colour, in nuclei of live Arabidopsis root tips at working depths of 20 ± 10 µm; stoichiometry = initial track intensity divided by characteristic molecular brightness; periodicity = most common interval between neighbouring peaks of the stoichiometry distribution; 20 ms exposure (VIN3-GFP, VRN5-YFP) or 10 ms (VIN3-SYFP2); timepoints NV, V2W, V6W, V6W+T14 of vernalisation

“…ON …3 (VIN3) fused to SYFP2 (from UniProt Q9FIE3 1-620)” was tested, and the binding was “binds”.
